The values that follow come from doi:10.1101/2021.12.20.473452.

Protein sequences, listed by entry. Tags and fused reporters are not part of them.
UniProt P68400: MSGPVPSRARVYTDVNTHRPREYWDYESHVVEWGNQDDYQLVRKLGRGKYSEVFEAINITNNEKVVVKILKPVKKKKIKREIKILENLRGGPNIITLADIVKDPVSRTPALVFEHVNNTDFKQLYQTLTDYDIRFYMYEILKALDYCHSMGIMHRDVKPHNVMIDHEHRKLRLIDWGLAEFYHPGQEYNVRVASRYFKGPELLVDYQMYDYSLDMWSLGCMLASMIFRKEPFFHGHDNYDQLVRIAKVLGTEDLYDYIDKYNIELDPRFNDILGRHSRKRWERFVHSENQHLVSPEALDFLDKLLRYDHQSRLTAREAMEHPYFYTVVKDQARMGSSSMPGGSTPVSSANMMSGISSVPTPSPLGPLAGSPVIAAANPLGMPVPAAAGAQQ
UniProt Q9UHI6: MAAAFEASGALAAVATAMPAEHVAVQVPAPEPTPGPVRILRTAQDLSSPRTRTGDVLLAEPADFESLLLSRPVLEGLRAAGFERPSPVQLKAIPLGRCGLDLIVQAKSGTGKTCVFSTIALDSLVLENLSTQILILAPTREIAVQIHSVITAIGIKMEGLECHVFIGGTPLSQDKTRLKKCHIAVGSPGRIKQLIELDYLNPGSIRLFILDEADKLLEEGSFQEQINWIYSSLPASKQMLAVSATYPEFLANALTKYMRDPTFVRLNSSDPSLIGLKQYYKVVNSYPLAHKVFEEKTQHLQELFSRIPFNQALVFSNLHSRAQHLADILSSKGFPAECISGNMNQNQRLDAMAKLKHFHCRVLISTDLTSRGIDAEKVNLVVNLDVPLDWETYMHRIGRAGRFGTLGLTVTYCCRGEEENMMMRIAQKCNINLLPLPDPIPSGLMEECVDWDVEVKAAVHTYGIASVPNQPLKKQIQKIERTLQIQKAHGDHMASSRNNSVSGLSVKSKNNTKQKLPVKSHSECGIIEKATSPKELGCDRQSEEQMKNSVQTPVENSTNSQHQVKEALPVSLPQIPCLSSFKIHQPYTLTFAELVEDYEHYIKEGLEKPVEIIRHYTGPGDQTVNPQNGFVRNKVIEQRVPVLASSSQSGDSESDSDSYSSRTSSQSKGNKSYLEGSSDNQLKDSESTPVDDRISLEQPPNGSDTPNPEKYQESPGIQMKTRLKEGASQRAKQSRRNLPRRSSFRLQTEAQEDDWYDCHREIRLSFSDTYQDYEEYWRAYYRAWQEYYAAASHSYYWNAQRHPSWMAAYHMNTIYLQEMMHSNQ
UniProt Q9UJV9: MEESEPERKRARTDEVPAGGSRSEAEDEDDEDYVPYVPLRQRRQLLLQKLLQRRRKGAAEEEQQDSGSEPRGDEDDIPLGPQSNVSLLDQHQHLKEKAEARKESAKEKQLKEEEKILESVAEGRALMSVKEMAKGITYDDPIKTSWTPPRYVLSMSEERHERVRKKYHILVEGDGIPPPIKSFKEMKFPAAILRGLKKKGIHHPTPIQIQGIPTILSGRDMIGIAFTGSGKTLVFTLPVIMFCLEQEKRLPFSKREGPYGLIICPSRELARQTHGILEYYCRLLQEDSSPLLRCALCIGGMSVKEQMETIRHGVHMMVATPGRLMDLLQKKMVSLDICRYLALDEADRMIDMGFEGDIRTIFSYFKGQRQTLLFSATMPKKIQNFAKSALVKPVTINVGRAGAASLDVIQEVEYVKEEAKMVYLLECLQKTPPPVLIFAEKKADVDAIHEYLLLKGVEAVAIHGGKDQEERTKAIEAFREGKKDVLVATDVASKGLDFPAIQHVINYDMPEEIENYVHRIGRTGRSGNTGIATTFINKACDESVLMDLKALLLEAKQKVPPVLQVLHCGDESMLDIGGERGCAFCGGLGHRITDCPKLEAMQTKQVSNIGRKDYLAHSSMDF
UniProt P26196: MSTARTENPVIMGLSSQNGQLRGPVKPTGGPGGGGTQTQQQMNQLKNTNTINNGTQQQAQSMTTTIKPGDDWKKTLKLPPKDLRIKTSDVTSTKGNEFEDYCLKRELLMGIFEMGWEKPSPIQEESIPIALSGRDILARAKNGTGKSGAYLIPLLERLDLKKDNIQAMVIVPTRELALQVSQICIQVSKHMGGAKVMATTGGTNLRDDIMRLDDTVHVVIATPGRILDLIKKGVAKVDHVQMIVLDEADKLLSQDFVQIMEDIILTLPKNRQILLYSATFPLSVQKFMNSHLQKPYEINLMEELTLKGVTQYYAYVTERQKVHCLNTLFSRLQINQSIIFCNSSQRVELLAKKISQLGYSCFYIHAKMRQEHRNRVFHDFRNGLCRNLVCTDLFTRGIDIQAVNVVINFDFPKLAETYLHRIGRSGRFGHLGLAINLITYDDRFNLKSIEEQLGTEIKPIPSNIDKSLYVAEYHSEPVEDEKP
UniProt O00148: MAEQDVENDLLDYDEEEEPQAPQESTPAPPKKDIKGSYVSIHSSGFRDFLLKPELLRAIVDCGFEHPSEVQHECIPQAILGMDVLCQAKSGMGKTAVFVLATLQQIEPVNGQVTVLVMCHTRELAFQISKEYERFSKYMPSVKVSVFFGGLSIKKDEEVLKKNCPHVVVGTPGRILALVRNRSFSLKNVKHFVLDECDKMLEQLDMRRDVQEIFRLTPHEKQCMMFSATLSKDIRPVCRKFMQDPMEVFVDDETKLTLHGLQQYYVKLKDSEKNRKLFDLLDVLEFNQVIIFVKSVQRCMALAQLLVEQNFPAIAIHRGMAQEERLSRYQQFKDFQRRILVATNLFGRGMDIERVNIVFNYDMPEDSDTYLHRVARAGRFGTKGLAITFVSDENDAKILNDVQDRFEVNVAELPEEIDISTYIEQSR
UniProt O00571: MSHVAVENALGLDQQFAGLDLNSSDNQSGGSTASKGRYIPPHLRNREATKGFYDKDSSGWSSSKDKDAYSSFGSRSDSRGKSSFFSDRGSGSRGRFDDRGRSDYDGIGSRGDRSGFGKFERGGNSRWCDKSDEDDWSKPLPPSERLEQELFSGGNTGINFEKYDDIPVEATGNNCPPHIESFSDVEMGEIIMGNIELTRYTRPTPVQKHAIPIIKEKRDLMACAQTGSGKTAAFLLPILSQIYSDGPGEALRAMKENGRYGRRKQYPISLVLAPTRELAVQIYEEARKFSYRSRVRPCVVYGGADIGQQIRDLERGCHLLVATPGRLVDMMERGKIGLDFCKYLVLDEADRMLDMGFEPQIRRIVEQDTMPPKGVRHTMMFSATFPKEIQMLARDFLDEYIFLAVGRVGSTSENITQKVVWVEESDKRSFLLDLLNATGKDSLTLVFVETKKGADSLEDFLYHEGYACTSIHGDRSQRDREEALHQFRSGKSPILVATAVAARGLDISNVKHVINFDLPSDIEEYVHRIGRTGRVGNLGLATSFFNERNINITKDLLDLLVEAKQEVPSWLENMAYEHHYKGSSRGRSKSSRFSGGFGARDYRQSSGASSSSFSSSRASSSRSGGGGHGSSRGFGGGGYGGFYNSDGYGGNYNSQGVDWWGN
UniProt P49674: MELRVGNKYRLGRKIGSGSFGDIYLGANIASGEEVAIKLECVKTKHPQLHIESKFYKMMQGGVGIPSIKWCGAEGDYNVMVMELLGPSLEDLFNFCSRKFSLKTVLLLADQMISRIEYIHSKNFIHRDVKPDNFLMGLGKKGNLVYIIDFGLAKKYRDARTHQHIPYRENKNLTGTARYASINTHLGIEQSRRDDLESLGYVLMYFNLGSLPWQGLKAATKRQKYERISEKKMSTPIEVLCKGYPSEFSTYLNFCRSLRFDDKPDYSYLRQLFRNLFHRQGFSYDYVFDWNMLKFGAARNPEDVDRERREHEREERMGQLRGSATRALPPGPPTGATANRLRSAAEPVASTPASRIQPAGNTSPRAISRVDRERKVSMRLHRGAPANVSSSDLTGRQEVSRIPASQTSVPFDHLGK
UniProt P22392: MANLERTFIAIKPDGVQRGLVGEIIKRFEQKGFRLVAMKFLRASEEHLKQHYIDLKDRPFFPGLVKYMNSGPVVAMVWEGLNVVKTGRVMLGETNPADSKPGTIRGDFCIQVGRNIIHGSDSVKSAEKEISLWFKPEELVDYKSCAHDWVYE
UniProt Q8TDD1: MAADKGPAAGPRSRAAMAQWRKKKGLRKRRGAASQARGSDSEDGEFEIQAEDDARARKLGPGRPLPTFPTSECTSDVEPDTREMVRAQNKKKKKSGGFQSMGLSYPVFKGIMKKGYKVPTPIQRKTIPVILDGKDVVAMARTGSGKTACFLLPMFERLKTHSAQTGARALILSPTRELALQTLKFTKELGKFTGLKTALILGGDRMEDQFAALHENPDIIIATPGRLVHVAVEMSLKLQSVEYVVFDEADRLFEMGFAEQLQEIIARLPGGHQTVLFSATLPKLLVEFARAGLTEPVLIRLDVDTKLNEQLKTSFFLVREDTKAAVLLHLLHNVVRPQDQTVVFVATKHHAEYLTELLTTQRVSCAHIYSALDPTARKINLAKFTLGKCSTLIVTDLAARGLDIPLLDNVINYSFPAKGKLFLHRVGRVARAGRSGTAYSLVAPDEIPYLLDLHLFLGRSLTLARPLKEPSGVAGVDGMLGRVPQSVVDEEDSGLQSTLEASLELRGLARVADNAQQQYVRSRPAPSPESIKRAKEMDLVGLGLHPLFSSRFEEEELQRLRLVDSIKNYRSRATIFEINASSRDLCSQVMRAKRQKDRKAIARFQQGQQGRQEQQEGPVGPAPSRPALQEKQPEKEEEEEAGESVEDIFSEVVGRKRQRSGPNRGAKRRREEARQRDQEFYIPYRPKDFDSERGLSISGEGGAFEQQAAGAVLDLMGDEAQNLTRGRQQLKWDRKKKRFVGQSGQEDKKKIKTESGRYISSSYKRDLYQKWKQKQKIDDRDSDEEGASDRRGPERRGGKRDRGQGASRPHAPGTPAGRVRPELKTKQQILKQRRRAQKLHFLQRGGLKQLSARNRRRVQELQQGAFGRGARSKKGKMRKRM

These are yes or no findings as the source states them, for the method shown. Binding seen in cells or lysates may run through a third protein. Some entries that bind do so weakly or less than the wild type. For some assays here: Sequences can lack the tags named with a protein.

Assay [1] has as its target endogenous CK2α1 (human (endogenous in HeLa)) (UniProt P68400). The assay is described as follows: co-IP.
Another assay concerns the target Myc-tagged DDX20 (UniProt Q9UHI6). The assay is described as follows: pull-down.
The next assay has as its target Myc-tagged DDX41 (UniProt Q9UJV9). The experiment in a line: pull-down.
Another assay concerns the target Myc-tagged DDX6 (UniProt P26196). The experiment in a line: pull-down.
In another assay the target is T1, Myc-tagged DDX56 (UniProt Q9NY93).
T1 sequence: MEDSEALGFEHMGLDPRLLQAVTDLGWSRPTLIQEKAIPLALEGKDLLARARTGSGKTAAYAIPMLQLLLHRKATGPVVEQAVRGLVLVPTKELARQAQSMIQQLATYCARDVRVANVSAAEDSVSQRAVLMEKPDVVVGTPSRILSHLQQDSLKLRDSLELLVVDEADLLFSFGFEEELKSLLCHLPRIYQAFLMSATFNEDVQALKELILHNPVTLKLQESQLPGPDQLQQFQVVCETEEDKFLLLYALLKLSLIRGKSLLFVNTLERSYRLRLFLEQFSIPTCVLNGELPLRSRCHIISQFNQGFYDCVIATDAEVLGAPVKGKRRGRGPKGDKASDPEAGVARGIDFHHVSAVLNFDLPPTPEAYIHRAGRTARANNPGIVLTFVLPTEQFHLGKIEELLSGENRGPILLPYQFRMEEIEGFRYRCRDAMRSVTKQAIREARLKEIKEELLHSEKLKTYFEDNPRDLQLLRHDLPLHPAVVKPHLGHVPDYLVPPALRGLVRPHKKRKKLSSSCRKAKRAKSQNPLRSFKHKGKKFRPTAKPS
The assay is described as follows: pull-down.

In another assay the target is T2, Myc-tagged DDX50 (UniProt Q9BQ39).
T2 sequence: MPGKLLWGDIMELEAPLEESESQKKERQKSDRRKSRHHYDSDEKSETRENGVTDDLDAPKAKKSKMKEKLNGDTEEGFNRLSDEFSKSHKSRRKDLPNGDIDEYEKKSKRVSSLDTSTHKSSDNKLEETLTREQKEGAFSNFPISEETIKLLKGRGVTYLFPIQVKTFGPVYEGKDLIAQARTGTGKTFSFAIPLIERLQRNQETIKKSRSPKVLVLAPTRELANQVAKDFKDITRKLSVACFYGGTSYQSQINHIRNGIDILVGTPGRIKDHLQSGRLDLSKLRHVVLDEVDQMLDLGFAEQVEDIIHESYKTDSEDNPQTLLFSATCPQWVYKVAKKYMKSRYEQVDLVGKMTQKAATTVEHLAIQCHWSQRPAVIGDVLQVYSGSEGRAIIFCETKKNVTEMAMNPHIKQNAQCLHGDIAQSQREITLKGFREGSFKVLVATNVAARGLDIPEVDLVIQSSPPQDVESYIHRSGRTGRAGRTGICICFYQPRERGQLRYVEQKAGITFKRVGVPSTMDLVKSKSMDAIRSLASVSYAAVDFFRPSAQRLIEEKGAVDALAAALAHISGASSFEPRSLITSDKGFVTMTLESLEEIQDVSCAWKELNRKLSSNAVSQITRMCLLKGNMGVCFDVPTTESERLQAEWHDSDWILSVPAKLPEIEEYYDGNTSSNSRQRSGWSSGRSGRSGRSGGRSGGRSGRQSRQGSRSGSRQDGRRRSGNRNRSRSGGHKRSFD
The assay is described as follows: pull-down.

Another assay has as its target Myc-tagged DDX39A (UniProt O00148). The assay is described as follows: pull-down.
In the next assay the target is Myc-tagged DDX3X (UniProt O00571). The experiment in a line: pull-down.

In the case of “endogenous DDX41 (from UniProt Q9UJV9 1-622)”, in assay [1], the binding entry is “binds”.
For “recombinant FLAG-tagged CK1ε (from UniProt P49674 1-416) (enzyme)”, the binding result with Myc-tagged DDX20, with Myc-tagged DDX41, in the assay with Myc-tagged DDX6, in the assay with Myc-tagged DDX56, with Myc-tagged DDX50 and with Myc-tagged DDX39A was “binds” each time.
For the molecule “FLAG-NME2 (from UniProt P22392 1-152) (enzyme)”, the binding result with Myc-tagged DDX20, with Myc-tagged DDX3X, with Myc-tagged DDX41, with Myc-tagged DDX6, in the assay with Myc-tagged DDX56 and in the assay with Myc-tagged DDX50 was “no binding” in each case. Also, the binding result with Myc-tagged DDX39A is reported as “no binding”.
As for “endogenous DDX54 (from UniProt Q8TDD1 1-881)”, in assay [1], the binding entry was “binds”.

B1: endogenous DDX24 (protein, UniProt Q9GZR7 1-859)
chain: MKLKDTKSRPKQSSCGKFQTKGIKVVGKWKEVKIDPNMFADGQMDDLVCFEELTDYQLVSPAKNPSSLFSKEAPKRKAQAVSEEEEEEEGKSSSPKKKIKLKKSKNVATEGTSTQKEFEVKDPELEAQGDDMVCDDPEAGEMTSENLVQTAPKKKKNKGKKGLEPSQSTAAKVPKKAKTWIPEVHDQKADVSAWKDLFVPRPVLRALSFLGFSAPTPIQALTLAPAIRDKLDILGAAETGSGKTLAFAIPMIHAVLQWQKRNAAPPPSNTEAPPGETRTEAGAETRSPGKAEAESDALPDDTVIESEALPSDIAAEARAKTGGTVSDQALLFGDDDAGEGPSSLIREKPVPKQNENEEENLDKEQTGNLKQELDDKSATCKAYPKRPLLGLVLTPTRELAVQVKQHIDAVARFTGIKTAILVGGMSTQKQQRMLNRRPEIVVATPGRLWELIKEKHYHLRNLRQLRCLVVDEADRMVEKGHFAELSQLLEMLNDSQYNPKRQTLVFSATLTLVHQAPARILHKKHTKKMDKTAKLDLLMQKIGMRGKPKVIDLTRNEATVETLTETKIHCETDEKDFYLYYFLMQYPGRSLVFANSISCIKRLSGLLKVLDIMPLTLHACMHQKQRLRNLEQFARLEDCVLLATDVAARGLDIPKVQHVIHYQVPRTSEIYVHRSGRTARATNEGLSLMLIGPEDVINFKKIYKTLKKDEDIPLFPVQTKYMDVVKERIRLARQIEKSEYRNFQACLHNSWIEQAAAALEIELEEDMYKGGKADQQEERRRQKQMKVLKKELRHLLSQPLFTESQKTKYPTQSGKPPLLVSAPSKSESALSCLSKQKKKKTKKPKEPQPEQPQPSTSAN
On to B1, for which, in assay [1], the binding result is “binds”.

B2: endogenous DDX56 (protein, UniProt Q9NY93 1-547)
chain: T1 sequence
Regarding B2, the binding entry in assay [1] is listed as “no binding”.
